According to US20160228444A1, “NUCLEOSIDE ANALOGS AND USES THEREOF” (Ramot at Tel-Aviv University Ltd., priority 2015, published 2016):
For some assays here: At least one compound was matched to its structure with a doubt left. Some of these results come from one statement about several compounds together.

Key:
HO-1 = HO-1 protein and mRNA in tumor and heart of xenograft mice (Western blot, qRT-PCR); type: in vivo
Description: Tumors and hearts of the mice were rapidly removed, frozen on dry ice and kept at −70° C. Tissue was then homogenized and RNA and proteins extracted using the NucleoSpin® RNA/Protein kit according to the manufacturer's protocol (Macherey-Nagel, GmbH & Co KG).
Total RNA ([…]) was primed by oligo dT and reverse-transcribed by Verso cDNA kit according to the manufacturer's protocol (Thermo Scientific). Analyses of qPCR were performed with Kapa Sybr® Fast (Kapa Biosystems) on a Step One Plus thermocycler (Applied Biosystems). The comparative threshold method was used to calculate the relative gene expression. Values were normalized against glyceraldehyde 3-phosphate dehydrogenase (GAPDH). Expression of the GAPDH mRNA in each individual sample was used to normalize the dataset. The sequences of the primers were as follows: […]
Protein levels in the samples were determined with the BCA protein assay kit (Pierce). The samples were subjected to Western blot analyses. The expression of proteins was visualized using their specified primary antibodies followed by the secondary IgG IRDye® 680DX antibody. Each detected band was quantified using the Odyssey Infrared Imaging System (LI-COR Biosciences) and normalized to the level of actin. The fold increase of a specific protein was determined by the ratio of the band intensity obtained from treated and untreated samples.
The effect of the drugs on the expression of genes associated with cell survival and death was examined by following changes in transcription and protein expression in tissue samples taken from the mice with glioblastoma xenografts. Heme oxygenase (HO-1) is known to play a protective role in the heart, whereas, in many cancers it is expressed and promotes growth and survival of neoplastic cells.

TLR4 = settings: 24 hours, concentrations based on the IC50, FIG. 15

SMILES | tumor HO-1 protein expression (decrease) (HO-1; in combination with Dox) | tumor HO-1 protein expression (decrease) (HO-1; single agent, FIGS. 4A, 4B) | TLR4 expression in MDA-231 cells (TLR4)
CCCC(=O)OCOP(=O)(OCC)OCC [AN7, butyroxymethyl diethylphosphate] | 2-2.5 fold | 2-2.5 fold | 
CCCC(CCC)C(=O)Nc1nc2c(ncn2COCCOC(=O)C(CCC)CCC)c(=O)[nH]1 [AN446, N-valproyl-9-(2-valproyloxy)ethoxymethyl-guanine] | 2-2.5 fold | 2-2.5 fold | 
C/C=C1\NC(=O)[C@H]2CSSCC/C=C/[C@H](CC(=O)N[C@H](C(C)C)C(=O)N2)OC(=O)[C@H](C(C)C)NC1=O [romidepsin] |  |  | no apparent effect on TLR4 expression
